From publication PMC8202330, “Phosphorylation of the LIR Domain of SCOC Modulates ATG8 Binding Affinity and Specificity” (Journal of Molecular Biology, 2021) come the findings set out here.

Amino acid sequences for entries named in this document (tags omitted). A change or cut given only in a name is not applied to a line headed by its entry. Chains listed by the source or under a name are the forms on record and can include a tag or linker. Residues count along the entry.
MYC-SCOC (isoform 3) WT (Q9UIL1-3, form named): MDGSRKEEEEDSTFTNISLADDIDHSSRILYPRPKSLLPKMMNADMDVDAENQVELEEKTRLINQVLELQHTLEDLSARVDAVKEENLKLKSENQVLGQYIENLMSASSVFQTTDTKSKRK
MYC-SCOC (isoform 3) S12E/S18E (Q9UIL1-3, form named): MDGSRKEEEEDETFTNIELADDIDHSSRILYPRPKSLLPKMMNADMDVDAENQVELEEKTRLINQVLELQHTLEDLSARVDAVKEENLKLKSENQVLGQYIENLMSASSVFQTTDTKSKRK
MYC-SCOC (isoform 3) S12E/T13E/T15E/S18E (Q9UIL1-3, form named): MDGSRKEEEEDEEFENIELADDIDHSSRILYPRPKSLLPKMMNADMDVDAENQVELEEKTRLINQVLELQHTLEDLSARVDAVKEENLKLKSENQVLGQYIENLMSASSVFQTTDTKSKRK
MYC-SCOC (isoform 3) S18E (Q9UIL1-3, form named): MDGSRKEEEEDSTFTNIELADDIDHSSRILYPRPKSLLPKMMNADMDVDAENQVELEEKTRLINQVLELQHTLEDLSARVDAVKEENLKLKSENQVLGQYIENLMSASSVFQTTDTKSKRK
UniProt Q9BXW4, residues 1-126: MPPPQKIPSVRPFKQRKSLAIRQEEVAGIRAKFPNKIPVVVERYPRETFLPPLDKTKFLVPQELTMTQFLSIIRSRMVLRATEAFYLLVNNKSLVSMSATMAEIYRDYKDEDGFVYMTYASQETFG
UniProt P60520: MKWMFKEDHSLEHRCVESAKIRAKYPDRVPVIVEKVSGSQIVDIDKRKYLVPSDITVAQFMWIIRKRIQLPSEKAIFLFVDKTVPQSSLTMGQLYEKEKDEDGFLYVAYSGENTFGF
UniProt Q8TDY2: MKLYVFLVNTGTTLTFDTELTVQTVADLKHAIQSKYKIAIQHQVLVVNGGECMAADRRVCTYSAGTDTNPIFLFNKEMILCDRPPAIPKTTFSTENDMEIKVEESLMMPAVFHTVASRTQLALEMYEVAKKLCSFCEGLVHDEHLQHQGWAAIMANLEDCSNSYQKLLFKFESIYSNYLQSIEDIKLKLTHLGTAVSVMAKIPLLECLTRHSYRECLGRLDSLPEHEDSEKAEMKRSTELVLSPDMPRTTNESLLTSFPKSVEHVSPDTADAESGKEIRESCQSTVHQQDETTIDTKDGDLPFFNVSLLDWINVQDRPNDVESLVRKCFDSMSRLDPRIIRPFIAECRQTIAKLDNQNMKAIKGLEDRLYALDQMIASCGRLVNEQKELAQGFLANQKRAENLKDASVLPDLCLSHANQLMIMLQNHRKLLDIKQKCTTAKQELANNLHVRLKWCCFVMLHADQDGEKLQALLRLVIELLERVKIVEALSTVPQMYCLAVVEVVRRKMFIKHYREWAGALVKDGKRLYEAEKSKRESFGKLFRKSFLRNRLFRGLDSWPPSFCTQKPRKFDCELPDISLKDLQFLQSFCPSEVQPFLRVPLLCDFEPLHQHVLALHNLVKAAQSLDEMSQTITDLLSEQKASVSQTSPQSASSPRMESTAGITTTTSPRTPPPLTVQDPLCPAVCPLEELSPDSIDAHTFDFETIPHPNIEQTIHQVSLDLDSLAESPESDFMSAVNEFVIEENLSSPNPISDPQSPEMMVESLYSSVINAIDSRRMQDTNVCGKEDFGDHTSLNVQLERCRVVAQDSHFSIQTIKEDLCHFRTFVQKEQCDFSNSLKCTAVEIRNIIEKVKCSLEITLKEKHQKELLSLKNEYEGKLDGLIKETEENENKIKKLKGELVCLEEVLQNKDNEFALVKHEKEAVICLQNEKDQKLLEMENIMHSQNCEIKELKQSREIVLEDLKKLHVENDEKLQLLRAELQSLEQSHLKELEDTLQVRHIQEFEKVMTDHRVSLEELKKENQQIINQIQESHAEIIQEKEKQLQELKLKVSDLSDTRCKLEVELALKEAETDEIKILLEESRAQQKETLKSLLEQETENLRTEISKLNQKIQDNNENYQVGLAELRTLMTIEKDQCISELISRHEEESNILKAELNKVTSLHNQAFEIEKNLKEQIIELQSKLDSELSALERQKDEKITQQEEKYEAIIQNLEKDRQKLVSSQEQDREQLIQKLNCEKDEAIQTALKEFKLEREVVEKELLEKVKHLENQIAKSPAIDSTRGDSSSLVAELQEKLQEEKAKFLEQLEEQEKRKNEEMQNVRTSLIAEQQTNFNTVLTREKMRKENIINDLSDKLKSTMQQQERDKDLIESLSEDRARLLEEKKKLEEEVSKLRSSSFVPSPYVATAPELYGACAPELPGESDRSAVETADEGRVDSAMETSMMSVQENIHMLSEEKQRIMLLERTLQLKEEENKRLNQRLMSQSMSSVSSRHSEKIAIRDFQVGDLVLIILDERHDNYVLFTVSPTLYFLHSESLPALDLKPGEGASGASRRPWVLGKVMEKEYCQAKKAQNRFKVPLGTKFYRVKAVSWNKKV
UniProt O95166: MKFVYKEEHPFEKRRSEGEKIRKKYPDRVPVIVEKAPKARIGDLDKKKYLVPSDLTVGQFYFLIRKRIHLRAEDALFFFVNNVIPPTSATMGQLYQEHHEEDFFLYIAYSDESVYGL

No constants are given. Whether binding was seen depends on the method and setting. For some assays here: In cells and extracts the contact can be indirect. Some results given as binding are weak or reduced against the parent protein; the word gives no strength. For some assays here: Where a sequence is shown, tags or fusion partners need not be part of it.

One test addresses T1, FEZ1-GFP (UniProt Q99689).
T1 sequence: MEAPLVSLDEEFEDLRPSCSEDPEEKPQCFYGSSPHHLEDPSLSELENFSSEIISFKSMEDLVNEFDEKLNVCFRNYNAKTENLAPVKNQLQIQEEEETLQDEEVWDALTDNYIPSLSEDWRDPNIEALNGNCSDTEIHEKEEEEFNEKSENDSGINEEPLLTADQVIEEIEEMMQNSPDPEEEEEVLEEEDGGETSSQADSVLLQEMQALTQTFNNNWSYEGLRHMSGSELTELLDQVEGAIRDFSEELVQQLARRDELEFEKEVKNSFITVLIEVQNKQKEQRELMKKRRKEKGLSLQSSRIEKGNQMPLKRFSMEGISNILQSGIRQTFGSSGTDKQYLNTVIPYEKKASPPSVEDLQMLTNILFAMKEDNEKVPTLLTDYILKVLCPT
The experiment in a line: co-IP; GFP-Trap IP of GFP-tagged proteins from HEK293A cells in full medium or starved 2 h in EBSS; blots for endogenous ULK1, ATG13, FIP200; TNTE buffer A (1% Triton X-100).

The target in test [1] is T2, GFP-FEZ2 (human (cDNA from a HeLa library)) (UniProt Q9UHY8).
T2 sequence: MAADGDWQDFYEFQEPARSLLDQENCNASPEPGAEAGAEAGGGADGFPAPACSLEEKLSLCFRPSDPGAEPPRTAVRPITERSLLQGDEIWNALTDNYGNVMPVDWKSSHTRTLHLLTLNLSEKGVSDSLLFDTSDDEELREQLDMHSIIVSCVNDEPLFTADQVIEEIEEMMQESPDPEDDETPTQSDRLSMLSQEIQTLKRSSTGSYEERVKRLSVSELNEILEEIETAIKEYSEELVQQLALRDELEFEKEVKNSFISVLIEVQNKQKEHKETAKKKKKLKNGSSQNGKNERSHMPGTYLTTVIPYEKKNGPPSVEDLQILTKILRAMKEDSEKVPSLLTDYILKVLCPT
Described as above.

The target in test [2] is GFP-SCOC (isoform 3), in HEK293A (human) (UniProt Q9UIL1). The test is described as above.
Test [3] addresses SCOC aa 11–25/pS12 LIR peptide (human). The experiment in a line: BLI; biotinylated LIR peptide immobilized on streptavidin biosensor, ATG8 in solution; 25 mM Tris pH 7.5, 150 mM NaCl, 0.5 mM TCEP, 0.1% Tween20, 1 mg/ml BSA; 25 °C; Kd from response against concentration; both purified.
Test [4] deals with SCOC pS18 LIR peptide (human). The description is as above.
Test [5] has as its target SCOC pT15 LIR peptide (human). The test is described as above.
The target in test [6] is T3, SCOC pT13 LIR peptide (human).
T3 sequence (peptide, phosphothreonine at 13; biotin-linker on the N-terminus; C-terminal amide): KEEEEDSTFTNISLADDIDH
Described as above.

A further test deals with GST-LC3C (human) (UniProt Q9BXW4). The experiment in a line: pull-down; GST-ATG8 proteins immobilized on Glutathione Sepharose beads; in vitro translated 35S-labelled GFP-SCOC in NET-N buffer (20 mM Tris-HCl pH 8.0, 100 mM NaCl, 1 mM EDTA, 0.5% Nonidet P-40); autoradiography; only the target purified.
Another test concerns the target GST-LC3A (human) (UniProt Q9H492). Described as above.
The target in a further test is GST-GABARAPL2 (human) (UniProt P60520). The description is as above.
For test [7], the target named is SCOC pS12 LIR peptide (human). Put plainly: BLI; biotinylated LIR peptide immobilized on streptavidin biosensor, ATG8 in solution; 25 mM Tris pH 7.5, 150 mM NaCl, 0.5 mM TCEP, 0.1% Tween20, 1 mg/ml BSA; 25 °C; Kd from response against concentration; both purified.
The next test addresses GFP-LC3A (UniProt Q9H492). The experiment in a line: co-IP; GFP-Trap IP; MYC-SCOC and GFP-ATG8 overexpressed separately in HEK293A, lysates mixed before the IP; TNTE buffer (0.5% Triton X-100), overnight at 4 °C.

“FIP200 (endogenous) (from UniProt Q8TDY2 1-1594)”: the binding result is “binds” with FEZ1-GFP, “binds” in test [1] and “no binding” in test [2].

For “GABARAP (for BLI) (from UniProt O95166 1-117)”, the binding entry in test [3], in test [4], in [5] and in test [6] was “binds” in each case.

“GABARAPL2 (for BLI) (from UniProt P60520 1-117)”: the binding entry in [4], in test [5] and in test [6] was “binds weakly” throughout.

In the case of “GFP-SCOC (isoform 3) wild-type, in vitro translated (from UniProt Q9UIL1-3 1-121)”, the binding result with GST-LC3C (human) was “binds”; in the test with GST-LC3A (human), “binds”; in the test with GST-GABARAPL2 (human), “binds weakly”.

For “LC3A (for BLI) (from UniProt Q9H492 1-121)”, the binding entry in test [3], in test [4], in [7] and in [5] was “binds” in each case.

Take “LC3C (for BLI) (from UniProt Q9BXW4 1-126)”: the binding entry in test [3], in test [4], in [7], in test [5] and in test [6] was “binds” throughout.

Turning to “MYC-SCOC (isoform 3) S12E/S18E (from UniProt Q9UIL1-3 1-121)”, the binding entry in the test with GFP-LC3A is “binds”.

Take “MYC-SCOC (isoform 3) S12E/T13E/T15E/S18E (from UniProt Q9UIL1-3 1-121)”: in the test with GFP-LC3A, the binding entry is reported as “binds”.

For the substance “MYC-SCOC (isoform 3) S18E (from UniProt Q9UIL1-3 1-121)”, the binding entry in the test with GFP-LC3A was “binds”.

“MYC-SCOC (isoform 3) WT (from UniProt Q9UIL1-3 1-121)”: the binding entry with GFP-LC3A is given as “binds”.
